# The list shows a part of the results. Repeats are few or missing, and single values can be far off.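 Test system: a mixed pool of 41 HAP1 clones in which 61 cancer-associated proteins carry fluorescent tags inserted into introns, and each clone is identified from its image pattern. Read-outs are compared with DMSO-treated control wells. The BRD4 degrader dBET6 served as the positive control.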
# Protein sequences, listed by entry. Tags and fused reporters are not part of them.
# UniProt O14980, whole entry: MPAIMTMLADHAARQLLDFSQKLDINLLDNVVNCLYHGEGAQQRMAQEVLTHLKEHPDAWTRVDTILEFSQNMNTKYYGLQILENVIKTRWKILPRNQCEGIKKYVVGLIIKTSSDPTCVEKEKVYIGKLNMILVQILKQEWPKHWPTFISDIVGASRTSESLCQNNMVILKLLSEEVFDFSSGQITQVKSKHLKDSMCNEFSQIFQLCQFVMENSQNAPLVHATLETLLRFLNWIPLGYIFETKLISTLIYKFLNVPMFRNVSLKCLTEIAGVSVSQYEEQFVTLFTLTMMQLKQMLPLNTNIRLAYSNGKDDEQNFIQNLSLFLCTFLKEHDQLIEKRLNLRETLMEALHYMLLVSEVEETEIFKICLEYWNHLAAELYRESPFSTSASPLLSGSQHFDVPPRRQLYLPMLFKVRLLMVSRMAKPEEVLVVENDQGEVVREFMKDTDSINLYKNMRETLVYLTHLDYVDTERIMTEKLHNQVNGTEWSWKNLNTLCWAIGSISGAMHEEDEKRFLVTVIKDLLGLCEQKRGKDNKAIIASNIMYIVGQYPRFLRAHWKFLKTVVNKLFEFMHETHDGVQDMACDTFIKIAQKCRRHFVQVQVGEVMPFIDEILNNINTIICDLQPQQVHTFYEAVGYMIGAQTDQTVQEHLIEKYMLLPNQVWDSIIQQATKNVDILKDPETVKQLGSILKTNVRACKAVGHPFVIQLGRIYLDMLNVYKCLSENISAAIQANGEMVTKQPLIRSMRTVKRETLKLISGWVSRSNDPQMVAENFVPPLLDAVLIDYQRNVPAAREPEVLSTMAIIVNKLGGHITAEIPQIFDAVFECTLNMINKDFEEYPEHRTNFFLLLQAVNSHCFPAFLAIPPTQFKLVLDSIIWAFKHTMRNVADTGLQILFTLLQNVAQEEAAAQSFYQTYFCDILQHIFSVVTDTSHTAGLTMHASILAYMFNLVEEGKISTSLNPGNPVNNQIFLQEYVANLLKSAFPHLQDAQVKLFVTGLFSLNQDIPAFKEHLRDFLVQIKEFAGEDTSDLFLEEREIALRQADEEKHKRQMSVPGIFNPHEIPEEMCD
# Biological target: XPO1 (intron 15 mScarlet tag, HAP1) (UniProt O14980)
# Assay: XPO1 fluorescence intensity change vs DMSO (log2 fold change); higher = more XPO1 protein
# Details: 6 h
row,Structure (SMILES),XPO1 fluorescence intensity change (log2)
1,CC(=O)S[C@@H]1CC2=CC(=O)CC[C@]2(C)[C@H]2CC[C@@]3(C)[C@@H](CC[C@@]34CCC(=O)O4)[C@H]12 [Spironolactone] (10.00018646 µM),0.165
2,N#CC(C#N)=C1C=CC=CN1/C(=C/c1ccccc1)C(=O)c1cccs1 (10 µM),-0.0224
3,O=C(CCNC(=O)c1cnccn1)Nc1nc(-c2ccccc2Cl)c(-c2ccccc2Cl)s1 (10 µM),0.0313
4,COc1ccccc1CC(=O)N1CCCN(C)c2nc3ccccc3nc21 (10 µM),0.0941
5,c1cnc2cc3c(cc2n1)[C@@H]1CNC[C@H]3C1 [Varenicline] (10 µM),-0.0245
6,O=C(Cc1ccc(-n2cccn2)cc1)Nc1ccc2oc(=O)[nH]c2c1 (10 µM),0.116
7,Cc1ccoc1C(=O)Nc1ccc2c(c1)CCN2C(=O)c1ccoc1 (10 µM),0.0426
8,COc1ccc2nc(C)cc(Sc3nnnn3C)c2c1 (10 µM),-0.072
9,O=C(COc1ccccc1)Nc1ncc(Cc2cccc(C(F)(F)F)c2)s1 (10 µM),0.0676
10,COc1cccc2c1N(CC(=O)Nc1ccc3c(c1)CCN3C(C)=O)CCC2 (10 µM),-0.0626
11,C/C=C/c1cc(C(=O)N2CCC(C)Sc3ccccc32)cc(OC)c1OC (centres undefined) (0.1 µM),-0.0931
12,CCCCC1C(=O)N(c2ccccc2)N(c2ccc(O)cc2)C1=O (centres undefined) [Oxyphenbutazone] (10 µM),-0.0189
13,Cc1ccccc1OCCOC(=O)c1cc(C)c(C)c(S(N)(=O)=O)c1 (10 µM),-0.0445
14,CCOC(CCl)/S(=N\S(=O)(=O)c1ccc(C)cc1)c1ccccc1[N+](=O)[O-] (centres undefined) (10 µM),-0.0831

# Copied from the list:
# XPO1 fluorescence intensity change (log2), `Cc1ccoc1C(=O)Nc1ccc2c(c1)CCN2C(=O)c1ccoc1` (10 µM) reads 0.0426
# XPO1 fluorescence intensity change (log2), `N#CC(C#N)=C1C=CC=CN1/C(=C/c1ccccc1)C(=O)c1cccs1` (10 µM) reads -0.0224
